Source: PubChem BioAssay AID1224826 (NIAID, 2016)

Purpose: 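Regulators of Tlr4 signalling leading to Tnf-alpha expression in macrophages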 (primary screen)
Cells: RAW264.7 G9 macrophages from mouse bearing reporters for p65 (GFP) and the Tnf promoter (mCherry)
Reagent: siRNA pool against mouse genes, 100 nM
Time to read-out: 16 h of LPS stimulation, after 2 days of siRNA transfection
Challenge: bacterial lipopolysaccharide (Salmonella minnesota R595), 10 ng/ml
Read-out: 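Imaged Tnf reporter mCherry in nuclei, minus background, normalised per plate to the median and expressed as robust z-scores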
Direction: Tnf reporter robust z-score: higher = stronger Tnf promoter reporter signal after LPS
Hit rule: 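a well counts as active at a score of -1.3 or below (Tlr4 knock-down control median) or above 3 (raised signal); controls and wells holding fewer than 50 cells are excluded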
Meaning of the calls: active = Tnf reporter clearly lowered or raised; inactive = no clear change in Tnf reporter
In all, the deposit lists about 17,000 reagents; shown is a random part of them. About 1,110 of them (6.6%) count as active. 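Active means lowered or raised reporter signal; replicate intensities are raw and not normalised per plate.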 Not all columns of the deposit are shown.

The opening 3 records, ahead of the listing:
Scx (scleraxis scleraxis bHLH transcription factor) | Tnf reporter robust z-score: 0.47; fewer than 50 cells in well: enough cells in well; Outcome: inactive
Net1 (neuroepithelial cell transforming gene 1) | Tnf reporter robust z-score: -0.6; fewer than 50 cells in well: enough cells in well; Outcome: inactive
Naip6 (NLR family, apoptosis inhibitory protein 6) | Tnf reporter robust z-score: 1.75; fewer than 50 cells in well: enough cells in well; Outcome: inactive

Results, from the first entry:
Scx (scleraxis scleraxis bHLH transcription factor) | Tnf reporter robust z-score: 0.47; fewer than 50 cells in well: enough cells in well; Outcome: inactive
Net1 (neuroepithelial cell transforming gene 1) | Tnf reporter robust z-score: -0.6; fewer than 50 cells in well: enough cells in well; Outcome: inactive
Naip6 (NLR family, apoptosis inhibitory protein 6) | Tnf reporter robust z-score: 1.75; fewer than 50 cells in well: enough cells in well; Outcome: inactive
Psip1 (PC4 and SFRS1 interacting protein 1) | Tnf reporter robust z-score: -1.24; fewer than 50 cells in well: enough cells in well; Outcome: inactive
Havcr1 (hepatitis A virus cellular receptor 1) | Tnf reporter robust z-score: -0.8; fewer than 50 cells in well: enough cells in well; Outcome: inactive
Sprn (shadow of prion protein) | Tnf reporter robust z-score: 2.01; fewer than 50 cells in well: enough cells in well; Outcome: inactive
Nqo1 (NAD(P)H dehydrogenase, quinone 1) | Tnf reporter robust z-score: -0.83; fewer than 50 cells in well: enough cells in well; Outcome: inactive
Ift20 (intraflagellar transport 20) | Tnf reporter robust z-score: 2.31; fewer than 50 cells in well: enough cells in well; Outcome: inactive
Ppil3 (peptidylprolyl isomerase (cyclophilin)-like 3) | Tnf reporter robust z-score: 0.04; fewer than 50 cells in well: enough cells in well; Outcome: inactive
Myrip (myosin VIIA and Rab interacting protein) | Tnf reporter robust z-score: -0.31; fewer than 50 cells in well: enough cells in well; Outcome: inactive
Rgs3 (regulator of G-protein signaling 3) | Tnf reporter robust z-score: -1.02; fewer than 50 cells in well: enough cells in well; Outcome: inactive
Neurl4 (neuralized E3 ubiquitin protein ligase 4) | Tnf reporter robust z-score: -0.07; fewer than 50 cells in well: enough cells in well; Outcome: inactive
Zfp830 (zinc finger protein 830) | fewer than 50 cells in well: fewer than 50 cells per well; well left out of calls; Outcome: inactive
Or8b101 (olfactory receptor family 8 subfamily B member 101) | Tnf reporter robust z-score: 3.02; fewer than 50 cells in well: enough cells in well; Outcome: active
Aldh3b3 (aldehyde dehydrogenase 3 family, member B3) | Tnf reporter robust z-score: 0.77; fewer than 50 cells in well: enough cells in well; Outcome: inactive
Fbln7 (fibulin 7) | Tnf reporter robust z-score: 0.53; fewer than 50 cells in well: enough cells in well; Outcome: inactive
Cadps2 (Ca2+-dependent activator protein for secretion 2) | Tnf reporter robust z-score: -0.02; fewer than 50 cells in well: enough cells in well; Outcome: inactive
Zfp451 (zinc finger protein 451) | Tnf reporter robust z-score: -0.94; fewer than 50 cells in well: enough cells in well; Outcome: inactive
Cdx2 (caudal type homeobox 2) | Tnf reporter robust z-score: 0.14; fewer than 50 cells in well: enough cells in well; Outcome: inactive
Il21 (interleukin 21) | fewer than 50 cells in well: fewer than 50 cells per well; well left out of calls; Outcome: inactive
Nsdhl (NAD(P) dependent steroid dehydrogenase-like) | Tnf reporter robust z-score: -0.44; fewer than 50 cells in well: enough cells in well; Outcome: inactive
Hhex (hematopoietically expressed homeobox) | Tnf reporter robust z-score: 0.91; fewer than 50 cells in well: enough cells in well; Outcome: inactive
Crisp3 (cysteine-rich secretory protein 3) | Tnf reporter robust z-score: 1.98; fewer than 50 cells in well: enough cells in well; Outcome: inactive
Riox1 (ribosomal oxygenase 1) | fewer than 50 cells in well: fewer than 50 cells per well; well left out of calls; Outcome: inactive
Tenm1 (teneurin transmembrane protein 1) | Tnf reporter robust z-score: 0.89; fewer than 50 cells in well: enough cells in well; Outcome: inactive
Prdx6 (peroxiredoxin 6) | Tnf reporter robust z-score: -0.66; fewer than 50 cells in well: enough cells in well; Outcome: inactive
Elmod1 (ELMO/CED-12 domain containing 1) | Tnf reporter robust z-score: -0.2; fewer than 50 cells in well: enough cells in well; Outcome: inactive
